At least one structure is not confirmed: it was looked up by name or label, or the drawing left a doubt.
Columns and labels:
[1] = test system: U87 (human glioblastoma); test: Dark toxicity and PDT cell kill, Presto Blue cell viability assay; assay type: cell-based; conditions: 45 J/cm^2, 530 nm, 24 hours post-irradiation, depending on PDC concentration
[2] = test system: CT26.WT (murine colon carcinoma); test: as above; assay type: cell-based; conditions: 45 J/cm^2, 530 nm, 24 hours post-irradiation, depending on PDC concentration
[3] = mouse models, tumour destruction; comparator drugs; cited from earlier work
[4] = test system: F98 (rat glioma); test: Dark toxicity and PDT cell kill, Presto Blue cell viability assay; assay type: cell-based; conditions: 45 J/cm^2, 530 nm, 24 hours post-irradiation, depending on PDC concentration
[5] = Photostability (photobleaching under irradiation); assay type: physicochemical; conditions: 525 nm, 78 mW/cm^2; OD at 423 nm for 14C, 411 nm for PPIX

NCC(=O)CCC(=O)O [ALA, Aminolevulinic Acid]
cell kill, PDC plus light (PDT) [1]: no, or very little, cell kill
cell kill, PDC plus light (PDT) [2]: no, or very little, cell kill
effective PDT dose [3]: 250 mg/kg
cell kill, PDC plus light (PDT) [4]: no, or very little, cell kill

C=CC1=C(C)c2cc3[nH]c(cc4nc(cc5[nH]c(cc1n2)c(C)c5CCC(=O)O)C(CCC(=O)O)=C4C)c(C)c3C=C [PPIX, protoporphyrin IX]
photobleaching after 60 minutes of irradiation [5]: approximately 70%

Source: patent US9676806B2, “Metal-based thiophene photodynamic compounds and their use” (priority 2012, dated 2017)
